Article PMC9705295
These are yes or no findings as the source states them, for the method shown. In cells and extracts the contact can be indirect. Some binding calls cover weakened binding; strength is not graded here. For some of these results: Sequences can lack the tags named with a protein.

Chains of the proteins cited; added tags and fusions are not shown.
UniProt Q60974: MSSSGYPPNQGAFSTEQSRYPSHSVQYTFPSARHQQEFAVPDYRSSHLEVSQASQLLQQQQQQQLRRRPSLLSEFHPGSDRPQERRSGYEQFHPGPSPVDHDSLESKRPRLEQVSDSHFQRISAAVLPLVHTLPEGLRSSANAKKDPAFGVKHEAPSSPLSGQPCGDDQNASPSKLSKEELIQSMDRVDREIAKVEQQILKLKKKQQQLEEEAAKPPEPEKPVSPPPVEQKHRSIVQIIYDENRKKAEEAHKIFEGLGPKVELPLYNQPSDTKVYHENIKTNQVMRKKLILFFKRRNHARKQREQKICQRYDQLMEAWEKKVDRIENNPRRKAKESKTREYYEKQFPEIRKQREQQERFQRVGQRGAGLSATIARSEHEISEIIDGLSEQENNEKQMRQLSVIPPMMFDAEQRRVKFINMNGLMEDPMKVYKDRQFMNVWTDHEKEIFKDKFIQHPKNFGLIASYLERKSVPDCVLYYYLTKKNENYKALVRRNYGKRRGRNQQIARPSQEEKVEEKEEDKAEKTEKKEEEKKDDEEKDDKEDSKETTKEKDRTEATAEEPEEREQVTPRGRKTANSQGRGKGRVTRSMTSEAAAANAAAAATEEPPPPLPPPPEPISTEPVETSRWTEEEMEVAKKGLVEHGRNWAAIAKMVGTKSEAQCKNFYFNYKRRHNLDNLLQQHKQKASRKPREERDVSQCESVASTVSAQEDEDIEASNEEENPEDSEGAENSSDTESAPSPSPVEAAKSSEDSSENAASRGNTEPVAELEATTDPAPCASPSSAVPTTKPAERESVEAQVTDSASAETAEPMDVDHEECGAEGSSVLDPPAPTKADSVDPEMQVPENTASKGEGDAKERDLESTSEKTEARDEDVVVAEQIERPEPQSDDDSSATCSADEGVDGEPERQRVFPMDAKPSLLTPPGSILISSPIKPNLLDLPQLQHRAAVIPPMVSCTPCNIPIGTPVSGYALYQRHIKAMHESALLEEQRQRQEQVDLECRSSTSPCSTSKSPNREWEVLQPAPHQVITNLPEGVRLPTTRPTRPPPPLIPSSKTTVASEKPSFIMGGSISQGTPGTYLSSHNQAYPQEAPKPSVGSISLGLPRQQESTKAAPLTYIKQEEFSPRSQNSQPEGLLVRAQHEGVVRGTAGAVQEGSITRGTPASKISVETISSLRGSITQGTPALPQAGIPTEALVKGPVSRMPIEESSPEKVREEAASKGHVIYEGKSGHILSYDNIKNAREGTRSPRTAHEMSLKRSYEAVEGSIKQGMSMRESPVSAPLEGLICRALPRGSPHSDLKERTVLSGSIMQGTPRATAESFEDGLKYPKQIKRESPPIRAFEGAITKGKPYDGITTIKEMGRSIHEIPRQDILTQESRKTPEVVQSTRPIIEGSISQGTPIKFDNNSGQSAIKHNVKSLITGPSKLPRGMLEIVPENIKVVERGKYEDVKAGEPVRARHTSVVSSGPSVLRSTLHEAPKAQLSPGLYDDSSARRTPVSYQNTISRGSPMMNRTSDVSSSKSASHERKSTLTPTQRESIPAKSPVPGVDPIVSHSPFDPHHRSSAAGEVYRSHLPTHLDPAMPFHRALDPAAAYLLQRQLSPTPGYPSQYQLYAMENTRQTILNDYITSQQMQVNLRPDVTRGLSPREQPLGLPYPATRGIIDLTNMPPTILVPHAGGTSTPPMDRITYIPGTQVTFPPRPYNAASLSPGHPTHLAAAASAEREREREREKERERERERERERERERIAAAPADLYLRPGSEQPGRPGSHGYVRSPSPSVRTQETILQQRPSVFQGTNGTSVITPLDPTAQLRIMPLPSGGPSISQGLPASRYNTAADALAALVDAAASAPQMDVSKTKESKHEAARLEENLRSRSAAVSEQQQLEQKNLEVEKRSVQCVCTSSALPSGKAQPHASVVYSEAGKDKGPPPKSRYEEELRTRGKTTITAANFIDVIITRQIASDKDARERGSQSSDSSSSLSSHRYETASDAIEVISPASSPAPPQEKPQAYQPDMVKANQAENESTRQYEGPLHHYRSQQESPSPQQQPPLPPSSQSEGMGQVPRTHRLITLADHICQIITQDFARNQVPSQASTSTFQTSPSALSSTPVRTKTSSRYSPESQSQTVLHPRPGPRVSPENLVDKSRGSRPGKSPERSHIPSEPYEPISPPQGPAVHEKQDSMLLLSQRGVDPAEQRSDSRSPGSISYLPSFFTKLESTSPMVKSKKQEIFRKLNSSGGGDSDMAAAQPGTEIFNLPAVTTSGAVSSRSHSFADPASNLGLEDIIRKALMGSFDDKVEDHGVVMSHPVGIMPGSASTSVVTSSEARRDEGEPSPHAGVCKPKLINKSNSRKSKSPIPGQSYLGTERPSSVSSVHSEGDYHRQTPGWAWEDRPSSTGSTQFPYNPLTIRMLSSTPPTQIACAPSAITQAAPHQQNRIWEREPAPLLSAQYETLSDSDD
UniProt O09106: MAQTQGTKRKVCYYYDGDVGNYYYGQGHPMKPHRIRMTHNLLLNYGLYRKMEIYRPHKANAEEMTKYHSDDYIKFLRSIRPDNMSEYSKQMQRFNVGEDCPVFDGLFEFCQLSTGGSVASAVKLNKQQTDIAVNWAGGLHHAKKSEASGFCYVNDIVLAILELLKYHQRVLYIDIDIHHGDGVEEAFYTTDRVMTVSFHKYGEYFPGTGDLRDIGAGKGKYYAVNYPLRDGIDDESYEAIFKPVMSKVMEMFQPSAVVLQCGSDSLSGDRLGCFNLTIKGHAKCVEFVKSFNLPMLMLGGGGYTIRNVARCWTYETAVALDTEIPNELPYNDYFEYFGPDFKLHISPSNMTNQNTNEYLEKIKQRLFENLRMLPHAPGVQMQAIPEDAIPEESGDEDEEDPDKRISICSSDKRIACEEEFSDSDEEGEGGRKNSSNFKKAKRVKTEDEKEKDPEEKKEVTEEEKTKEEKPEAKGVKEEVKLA

T1: MYC-tagged mouse LATS1 (mouse) (UniProt Q8BYR2)
T1 sequence: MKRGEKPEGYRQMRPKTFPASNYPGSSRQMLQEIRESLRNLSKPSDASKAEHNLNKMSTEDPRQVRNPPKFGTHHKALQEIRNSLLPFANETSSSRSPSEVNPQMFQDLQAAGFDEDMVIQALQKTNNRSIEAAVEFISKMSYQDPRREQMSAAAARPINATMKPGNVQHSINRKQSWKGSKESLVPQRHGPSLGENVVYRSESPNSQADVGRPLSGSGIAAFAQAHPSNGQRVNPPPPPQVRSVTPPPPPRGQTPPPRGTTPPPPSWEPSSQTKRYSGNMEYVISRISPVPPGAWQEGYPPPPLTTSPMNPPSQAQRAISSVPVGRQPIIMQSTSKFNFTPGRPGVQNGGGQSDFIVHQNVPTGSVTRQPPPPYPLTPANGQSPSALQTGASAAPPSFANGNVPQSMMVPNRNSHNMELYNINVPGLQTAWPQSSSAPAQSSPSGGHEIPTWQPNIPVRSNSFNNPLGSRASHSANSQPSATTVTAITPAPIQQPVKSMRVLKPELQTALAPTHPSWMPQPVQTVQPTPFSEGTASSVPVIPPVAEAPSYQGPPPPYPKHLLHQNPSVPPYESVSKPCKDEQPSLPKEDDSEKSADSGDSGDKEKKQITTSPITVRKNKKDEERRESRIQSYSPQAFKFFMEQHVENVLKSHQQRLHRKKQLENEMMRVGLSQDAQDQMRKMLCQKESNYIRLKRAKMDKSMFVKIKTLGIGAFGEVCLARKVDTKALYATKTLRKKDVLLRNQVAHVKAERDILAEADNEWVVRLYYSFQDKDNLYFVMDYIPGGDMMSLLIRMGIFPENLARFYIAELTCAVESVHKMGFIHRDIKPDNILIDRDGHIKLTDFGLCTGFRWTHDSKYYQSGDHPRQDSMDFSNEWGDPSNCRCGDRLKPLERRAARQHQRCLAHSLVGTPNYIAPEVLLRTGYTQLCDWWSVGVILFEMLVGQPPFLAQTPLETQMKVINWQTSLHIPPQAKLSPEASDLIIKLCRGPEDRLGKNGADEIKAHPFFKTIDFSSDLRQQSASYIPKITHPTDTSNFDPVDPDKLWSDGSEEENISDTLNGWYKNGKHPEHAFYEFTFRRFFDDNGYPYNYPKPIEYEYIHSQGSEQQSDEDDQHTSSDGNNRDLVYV


What was measured:
[1] = target: T1, MYC-tagged mouse LATS1 (mouse); assay: co-IP; Lats1-CKO PyMT cells stably transduced with MYC-tagged mouse Lats1 or vector; immunoprecipitation with antibodies against MYC-tag (9E10) or LATS1, Western blot; NP-40 lysis buffer (50 mM Tris-HCl pH 8.0, 150 mM NaCl, 1.0% NP-40), Protein A Dynabeads, 4 h at 4 °C
[2] = target: endogenous NCOR1 (mouse PyMT cells) (mouse (endogenous in PyMT cells)) (UniProt Q60974); assay: co-IP; endogenous proteins, WT PyMT cells (expressing LATS1), Fig. S5d; NP-40 lysis buffer, Protein A Dynabeads, 4 h at 4 °C
[3] = target: endogenous NCOR1 (mouse PyMT cells) (mouse (endogenous in PyMT cells)) (UniProt Q60974); assay: proximity ligation; PyMT cells, fixed (4% PFA) and permeabilised (0.1% Triton); DuoLink In Situ PLA with antibodies against GFP and NCOR1

| Molecule | binding [1] | further results |
| --- | --- | --- |
| endogenous NCOR1 (mouse PyMT cells) (from UniProt Q60974 1-2453) | binds | – |
| HDAC1 (mouse PyMT cells, endogenous) (from UniProt O09106 1-482) (enzyme) | binds | – |
| endogenous LATS1 (mouse WT PyMT cells) (protein, UniProt Q8BYR2 1-1129) MKRGEKPEGYRQMRPKTFPASNYPGSSRQMLQEIRESLRNLSKPSDASKAEHNLNKMSTEDPRQVRNPPKFGTHHKALQEIRNSLLPFANETSSSRSPSEVNPQMFQDLQAAGFDEDMVIQALQKTNNRSIEAAVEFISKMSYQDPRREQMSAAAARPINATMKPGNVQHSINRKQSWKGSKESLVPQRHGPSLGENVVYRSESPNSQADVGRPLSGSGIAAFAQAHPSNGQRVNPPPPPQVRSVTPPPPPRGQTPPPRGTTPPPPSWEPSSQTKRYSGNMEYVISRISPVPPGAWQEGYPPPPLTTSPMNPPSQAQRAISSVPVGRQPIIMQSTSKFNFTPGRPGVQNGGGQSDFIVHQNVPTGSVTRQPPPPYPLTPANGQSPSALQTGASAAPPSFANGNVPQSMMVPNRNSHNMELYNINVPGLQTAWPQSSSAPAQSSPSGGHEIPTWQPNIPVRSNSFNNPLGSRASHSANSQPSATTVTAITPAPIQQPVKSMRVLKPELQTALAPTHPSWMPQPVQTVQPTPFSEGTASSVPVIPPVAEAPSYQGPPPPYPKHLLHQNPSVPPYESVSKPCKDEQPSLPKEDDSEKSADSGDSGDKEKKQITTSPITVRKNKKDEERRESRIQSYSPQAFKFFMEQHVENVLKSHQQRLHRKKQLENEMMRVGLSQDAQDQMRKMLCQKESNYIRLKRAKMDKSMFVKIKTLGIGAFGEVCLARKVDTKALYATKTLRKKDVLLRNQVAHVKAERDILAEADNEWVVRLYYSFQDKDNLYFVMDYIPGGDMMSLLIRMGIFPENLARFYIAELTCAVESVHKMGFIHRDIKPDNILIDRDGHIKLTDFGLCTGFRWTHDSKYYQSGDHPRQDSMDFSNEWGDPSNCRCGDRLKPLERRAARQHQRCLAHSLVGTPNYIAPEVLLRTGYTQLCDWWSVGVILFEMLVGQPPFLAQTPLETQMKVINWQTSLHIPPQAKLSPEASDLIIKLCRGPEDRLGKNGADEIKAHPFFKTIDFSSDLRQQSASYIPKITHPTDTSNFDPVDPDKLWSDGSEEENISDTLNGWYKNGKHPEHAFYEFTFRRFFDDNGYPYNYPKPIEYEYIHSQGSEQQSDEDDQHTSSDGNNRDLVYV | – | binding [2]: binds weakly |
| GFP-tagged mouse LATS1 (in PyMT cells) (protein, UniProt Q8BYR2 1-1129) MKRGEKPEGYRQMRPKTFPASNYPGSSRQMLQEIRESLRNLSKPSDASKAEHNLNKMSTEDPRQVRNPPKFGTHHKALQEIRNSLLPFANETSSSRSPSEVNPQMFQDLQAAGFDEDMVIQALQKTNNRSIEAAVEFISKMSYQDPRREQMSAAAARPINATMKPGNVQHSINRKQSWKGSKESLVPQRHGPSLGENVVYRSESPNSQADVGRPLSGSGIAAFAQAHPSNGQRVNPPPPPQVRSVTPPPPPRGQTPPPRGTTPPPPSWEPSSQTKRYSGNMEYVISRISPVPPGAWQEGYPPPPLTTSPMNPPSQAQRAISSVPVGRQPIIMQSTSKFNFTPGRPGVQNGGGQSDFIVHQNVPTGSVTRQPPPPYPLTPANGQSPSALQTGASAAPPSFANGNVPQSMMVPNRNSHNMELYNINVPGLQTAWPQSSSAPAQSSPSGGHEIPTWQPNIPVRSNSFNNPLGSRASHSANSQPSATTVTAITPAPIQQPVKSMRVLKPELQTALAPTHPSWMPQPVQTVQPTPFSEGTASSVPVIPPVAEAPSYQGPPPPYPKHLLHQNPSVPPYESVSKPCKDEQPSLPKEDDSEKSADSGDSGDKEKKQITTSPITVRKNKKDEERRESRIQSYSPQAFKFFMEQHVENVLKSHQQRLHRKKQLENEMMRVGLSQDAQDQMRKMLCQKESNYIRLKRAKMDKSMFVKIKTLGIGAFGEVCLARKVDTKALYATKTLRKKDVLLRNQVAHVKAERDILAEADNEWVVRLYYSFQDKDNLYFVMDYIPGGDMMSLLIRMGIFPENLARFYIAELTCAVESVHKMGFIHRDIKPDNILIDRDGHIKLTDFGLCTGFRWTHDSKYYQSGDHPRQDSMDFSNEWGDPSNCRCGDRLKPLERRAARQHQRCLAHSLVGTPNYIAPEVLLRTGYTQLCDWWSVGVILFEMLVGQPPFLAQTPLETQMKVINWQTSLHIPPQAKLSPEASDLIIKLCRGPEDRLGKNGADEIKAHPFFKTIDFSSDLRQQSASYIPKITHPTDTSNFDPVDPDKLWSDGSEEENISDTLNGWYKNGKHPEHAFYEFTFRRFFDDNGYPYNYPKPIEYEYIHSQGSEQQSDEDDQHTSSDGNNRDLVYV | – | binding [3]: binds |
